# According to PubChem BioAssay AID2326 (National Center for Advancing Translational Sciences (NCATS), 2010):
# The campaign covered roughly 270,000 compounds. About 1,100 (0.41%) were called active. All entries are inconclusive by the source's own rule. Clear calls are listed elsewhere. The call rests on the fitted dose curve. Some tests of the compounds listed are not included; inactive here does not mean inactive elsewhere.
# Test: qHTS Assay for Inhibitors of Influenza NS1 Protein Function; further: actives are rising curves; nearly all actives have a fitted effect of over 50% in size
# Conditions: cell-based NS1 function reporter
# Potency means the concentration at half of the fitted maximal effect.
row,SMILES,Potency
1,O=C(NCC1(N2CCCCC2)CCCCC1)c1cccc(Br)c1,inconclusive: 1000 nM
